This note sets out measurements from the supplement of paper PMC10849652.

By UniProt entry, the sequences of proteins in these tests, tags left out. Where a name states a change or a piece, a line headed by the entry shows the natural chain unless it says otherwise.
UniProt Q14974, whole entry, looked up: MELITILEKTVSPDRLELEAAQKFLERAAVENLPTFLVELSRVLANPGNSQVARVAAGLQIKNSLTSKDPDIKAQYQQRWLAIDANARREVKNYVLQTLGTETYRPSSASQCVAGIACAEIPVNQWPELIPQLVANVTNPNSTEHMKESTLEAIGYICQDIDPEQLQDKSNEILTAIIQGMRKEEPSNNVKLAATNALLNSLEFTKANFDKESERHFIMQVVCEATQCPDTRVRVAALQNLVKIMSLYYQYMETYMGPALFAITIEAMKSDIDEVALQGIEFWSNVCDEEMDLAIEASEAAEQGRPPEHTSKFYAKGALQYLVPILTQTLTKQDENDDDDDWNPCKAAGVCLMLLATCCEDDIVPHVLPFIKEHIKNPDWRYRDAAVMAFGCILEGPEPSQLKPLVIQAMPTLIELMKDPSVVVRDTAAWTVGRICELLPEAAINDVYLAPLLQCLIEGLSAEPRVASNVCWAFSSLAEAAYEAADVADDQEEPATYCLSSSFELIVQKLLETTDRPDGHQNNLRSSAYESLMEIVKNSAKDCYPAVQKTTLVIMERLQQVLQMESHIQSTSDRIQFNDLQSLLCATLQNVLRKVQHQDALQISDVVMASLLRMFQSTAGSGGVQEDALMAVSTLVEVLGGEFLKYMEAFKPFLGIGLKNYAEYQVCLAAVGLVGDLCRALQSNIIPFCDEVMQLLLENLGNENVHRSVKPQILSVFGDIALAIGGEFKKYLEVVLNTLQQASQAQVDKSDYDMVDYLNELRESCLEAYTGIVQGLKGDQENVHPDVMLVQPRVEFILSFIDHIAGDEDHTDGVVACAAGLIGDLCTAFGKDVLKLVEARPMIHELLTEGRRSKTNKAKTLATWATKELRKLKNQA
UniProt O15066: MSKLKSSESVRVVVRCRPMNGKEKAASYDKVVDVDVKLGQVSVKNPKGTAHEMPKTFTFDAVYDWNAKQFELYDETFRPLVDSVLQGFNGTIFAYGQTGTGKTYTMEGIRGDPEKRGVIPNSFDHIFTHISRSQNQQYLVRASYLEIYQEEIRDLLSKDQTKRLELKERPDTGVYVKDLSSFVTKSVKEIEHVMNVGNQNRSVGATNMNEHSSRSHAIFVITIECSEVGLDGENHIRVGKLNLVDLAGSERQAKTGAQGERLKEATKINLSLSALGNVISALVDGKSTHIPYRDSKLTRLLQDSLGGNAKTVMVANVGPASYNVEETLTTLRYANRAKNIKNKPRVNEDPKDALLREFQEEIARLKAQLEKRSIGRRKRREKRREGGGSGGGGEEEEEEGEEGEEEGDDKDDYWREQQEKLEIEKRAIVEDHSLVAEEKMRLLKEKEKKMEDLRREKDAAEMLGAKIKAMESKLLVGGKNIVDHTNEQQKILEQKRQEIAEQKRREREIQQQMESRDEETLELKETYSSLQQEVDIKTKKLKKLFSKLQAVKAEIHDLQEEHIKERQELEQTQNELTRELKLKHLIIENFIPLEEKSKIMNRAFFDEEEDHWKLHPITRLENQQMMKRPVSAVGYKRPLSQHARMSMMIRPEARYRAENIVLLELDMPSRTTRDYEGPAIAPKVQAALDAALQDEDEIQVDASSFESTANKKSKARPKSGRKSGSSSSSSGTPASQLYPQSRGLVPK
UniProt A8MWY0: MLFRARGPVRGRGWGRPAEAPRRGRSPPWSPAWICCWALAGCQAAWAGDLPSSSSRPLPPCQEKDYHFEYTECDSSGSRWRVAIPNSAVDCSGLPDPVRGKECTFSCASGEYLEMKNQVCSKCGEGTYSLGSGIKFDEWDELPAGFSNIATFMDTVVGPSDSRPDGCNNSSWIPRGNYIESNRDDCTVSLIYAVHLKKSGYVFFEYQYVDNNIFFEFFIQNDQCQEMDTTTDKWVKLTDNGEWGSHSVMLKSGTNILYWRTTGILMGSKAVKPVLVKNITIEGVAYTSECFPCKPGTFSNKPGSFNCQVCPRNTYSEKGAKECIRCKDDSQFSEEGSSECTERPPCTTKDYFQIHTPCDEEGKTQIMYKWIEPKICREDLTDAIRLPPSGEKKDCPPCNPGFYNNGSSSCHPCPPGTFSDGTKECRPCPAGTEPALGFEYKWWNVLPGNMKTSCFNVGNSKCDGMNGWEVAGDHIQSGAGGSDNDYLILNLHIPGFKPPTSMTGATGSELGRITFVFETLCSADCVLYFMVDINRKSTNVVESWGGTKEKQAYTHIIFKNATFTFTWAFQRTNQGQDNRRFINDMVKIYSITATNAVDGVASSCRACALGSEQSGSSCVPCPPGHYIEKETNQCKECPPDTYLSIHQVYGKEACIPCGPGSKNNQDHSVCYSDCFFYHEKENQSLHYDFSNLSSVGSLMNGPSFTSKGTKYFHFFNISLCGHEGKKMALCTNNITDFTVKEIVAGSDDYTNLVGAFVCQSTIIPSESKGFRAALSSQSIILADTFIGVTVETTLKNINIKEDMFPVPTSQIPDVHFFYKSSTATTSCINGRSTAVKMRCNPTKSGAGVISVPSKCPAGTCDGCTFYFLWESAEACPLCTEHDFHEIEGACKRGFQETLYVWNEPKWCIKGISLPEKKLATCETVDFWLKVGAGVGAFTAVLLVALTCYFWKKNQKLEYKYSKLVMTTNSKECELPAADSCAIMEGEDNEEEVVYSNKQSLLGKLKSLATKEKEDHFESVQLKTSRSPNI
UniProt Q9H3F6: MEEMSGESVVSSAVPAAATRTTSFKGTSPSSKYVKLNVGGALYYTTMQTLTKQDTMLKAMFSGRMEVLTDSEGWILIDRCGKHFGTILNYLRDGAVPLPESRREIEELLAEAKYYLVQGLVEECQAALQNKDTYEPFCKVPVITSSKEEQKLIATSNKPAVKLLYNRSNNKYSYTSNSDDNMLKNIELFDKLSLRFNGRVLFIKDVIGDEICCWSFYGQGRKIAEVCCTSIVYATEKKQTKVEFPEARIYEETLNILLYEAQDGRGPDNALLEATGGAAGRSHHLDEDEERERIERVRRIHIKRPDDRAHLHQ
UniProt Q9H0B6: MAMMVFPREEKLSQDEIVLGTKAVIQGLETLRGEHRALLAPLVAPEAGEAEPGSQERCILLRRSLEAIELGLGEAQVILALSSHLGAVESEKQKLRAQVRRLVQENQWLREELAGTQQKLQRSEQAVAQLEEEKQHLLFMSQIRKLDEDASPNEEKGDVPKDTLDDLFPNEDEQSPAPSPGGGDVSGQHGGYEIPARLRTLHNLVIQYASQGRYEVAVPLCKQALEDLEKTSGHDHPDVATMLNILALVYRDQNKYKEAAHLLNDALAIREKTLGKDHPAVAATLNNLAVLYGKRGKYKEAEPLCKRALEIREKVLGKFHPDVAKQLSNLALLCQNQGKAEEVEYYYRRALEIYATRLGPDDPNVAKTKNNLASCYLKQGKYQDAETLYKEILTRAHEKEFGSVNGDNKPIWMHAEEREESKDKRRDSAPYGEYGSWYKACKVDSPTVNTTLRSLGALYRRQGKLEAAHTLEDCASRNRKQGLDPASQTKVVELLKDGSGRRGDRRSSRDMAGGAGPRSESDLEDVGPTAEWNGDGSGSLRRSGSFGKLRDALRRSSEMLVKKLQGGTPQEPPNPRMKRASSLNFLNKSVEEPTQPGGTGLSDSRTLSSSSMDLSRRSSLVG
UniProt Q8NC54: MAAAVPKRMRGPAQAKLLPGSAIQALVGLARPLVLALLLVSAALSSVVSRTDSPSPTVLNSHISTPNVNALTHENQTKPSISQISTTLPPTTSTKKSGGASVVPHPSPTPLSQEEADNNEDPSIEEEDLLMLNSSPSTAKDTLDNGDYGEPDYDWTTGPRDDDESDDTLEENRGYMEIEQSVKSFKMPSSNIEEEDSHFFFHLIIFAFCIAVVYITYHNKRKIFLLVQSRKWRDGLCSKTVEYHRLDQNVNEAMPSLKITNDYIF
UniProt Q5JYT7: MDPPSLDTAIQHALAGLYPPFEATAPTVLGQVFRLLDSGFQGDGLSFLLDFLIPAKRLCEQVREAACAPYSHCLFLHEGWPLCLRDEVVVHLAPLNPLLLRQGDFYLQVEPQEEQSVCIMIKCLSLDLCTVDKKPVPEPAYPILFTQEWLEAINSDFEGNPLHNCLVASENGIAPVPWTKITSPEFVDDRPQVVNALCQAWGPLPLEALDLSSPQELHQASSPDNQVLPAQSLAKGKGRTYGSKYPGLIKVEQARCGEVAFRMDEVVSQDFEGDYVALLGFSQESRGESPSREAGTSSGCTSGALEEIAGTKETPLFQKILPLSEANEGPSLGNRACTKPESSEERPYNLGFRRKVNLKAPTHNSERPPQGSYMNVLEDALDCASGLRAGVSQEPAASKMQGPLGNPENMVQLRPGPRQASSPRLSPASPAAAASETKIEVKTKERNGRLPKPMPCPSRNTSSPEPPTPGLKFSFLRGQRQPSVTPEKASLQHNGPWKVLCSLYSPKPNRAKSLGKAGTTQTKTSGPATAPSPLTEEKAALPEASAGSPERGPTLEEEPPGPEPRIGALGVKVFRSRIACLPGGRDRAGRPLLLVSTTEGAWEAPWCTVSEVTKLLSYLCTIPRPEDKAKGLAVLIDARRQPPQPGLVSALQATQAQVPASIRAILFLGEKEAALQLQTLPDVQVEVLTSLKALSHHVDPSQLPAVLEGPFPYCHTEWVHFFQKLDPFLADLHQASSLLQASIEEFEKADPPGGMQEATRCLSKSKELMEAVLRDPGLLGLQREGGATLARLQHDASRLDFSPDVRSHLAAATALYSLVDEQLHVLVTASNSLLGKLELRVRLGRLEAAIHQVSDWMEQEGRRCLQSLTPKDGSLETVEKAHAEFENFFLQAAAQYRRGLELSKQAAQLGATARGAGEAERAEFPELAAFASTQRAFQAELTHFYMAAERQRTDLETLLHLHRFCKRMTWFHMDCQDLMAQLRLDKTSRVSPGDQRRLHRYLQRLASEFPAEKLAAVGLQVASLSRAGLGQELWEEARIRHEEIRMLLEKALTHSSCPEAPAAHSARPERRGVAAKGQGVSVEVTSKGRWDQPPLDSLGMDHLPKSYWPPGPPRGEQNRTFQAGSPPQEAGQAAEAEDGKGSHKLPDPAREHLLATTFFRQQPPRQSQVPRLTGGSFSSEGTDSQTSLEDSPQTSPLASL
UniProt O94889: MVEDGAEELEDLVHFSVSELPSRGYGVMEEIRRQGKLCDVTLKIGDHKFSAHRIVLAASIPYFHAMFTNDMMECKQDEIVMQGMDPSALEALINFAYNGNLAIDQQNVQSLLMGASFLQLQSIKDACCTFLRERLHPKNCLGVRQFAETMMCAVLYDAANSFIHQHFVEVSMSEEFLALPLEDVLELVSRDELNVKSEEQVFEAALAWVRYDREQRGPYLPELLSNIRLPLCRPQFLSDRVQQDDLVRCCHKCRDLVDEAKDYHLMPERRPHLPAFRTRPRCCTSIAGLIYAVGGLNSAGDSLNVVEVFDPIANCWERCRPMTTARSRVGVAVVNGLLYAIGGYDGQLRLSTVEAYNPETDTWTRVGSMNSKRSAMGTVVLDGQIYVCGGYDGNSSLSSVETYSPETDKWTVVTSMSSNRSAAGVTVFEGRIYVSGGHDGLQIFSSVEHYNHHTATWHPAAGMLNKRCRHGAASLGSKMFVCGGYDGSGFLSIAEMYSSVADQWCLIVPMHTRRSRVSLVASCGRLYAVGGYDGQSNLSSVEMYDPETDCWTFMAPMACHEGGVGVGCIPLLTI
UniProt Q96EK5: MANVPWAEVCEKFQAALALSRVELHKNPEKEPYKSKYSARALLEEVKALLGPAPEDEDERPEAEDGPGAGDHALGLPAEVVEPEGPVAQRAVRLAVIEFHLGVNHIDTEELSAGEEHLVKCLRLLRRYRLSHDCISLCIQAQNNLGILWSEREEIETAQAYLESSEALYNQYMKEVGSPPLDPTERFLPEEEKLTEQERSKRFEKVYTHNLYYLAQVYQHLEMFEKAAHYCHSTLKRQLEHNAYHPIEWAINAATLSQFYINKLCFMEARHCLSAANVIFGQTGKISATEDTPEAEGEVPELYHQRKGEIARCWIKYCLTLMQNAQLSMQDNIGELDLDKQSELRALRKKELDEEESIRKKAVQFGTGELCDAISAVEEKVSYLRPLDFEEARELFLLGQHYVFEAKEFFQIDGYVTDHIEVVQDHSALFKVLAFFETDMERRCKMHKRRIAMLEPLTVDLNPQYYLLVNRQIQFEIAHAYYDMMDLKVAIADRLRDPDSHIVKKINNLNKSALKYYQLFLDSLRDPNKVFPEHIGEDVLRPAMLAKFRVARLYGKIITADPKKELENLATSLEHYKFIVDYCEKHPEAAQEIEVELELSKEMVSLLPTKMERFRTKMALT
UniProt P0C870: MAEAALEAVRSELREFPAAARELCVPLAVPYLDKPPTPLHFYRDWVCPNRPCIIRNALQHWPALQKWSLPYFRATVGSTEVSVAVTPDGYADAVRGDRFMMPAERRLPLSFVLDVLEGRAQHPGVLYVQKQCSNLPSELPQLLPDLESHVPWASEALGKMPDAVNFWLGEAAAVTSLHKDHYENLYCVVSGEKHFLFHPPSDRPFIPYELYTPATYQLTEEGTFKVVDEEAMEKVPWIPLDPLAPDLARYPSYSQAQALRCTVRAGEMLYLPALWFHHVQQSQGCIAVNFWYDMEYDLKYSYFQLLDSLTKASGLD

This is one part of the list.

Compound in the first assay: CNC(=O)c1ccc(Nc2ncc(C(F)(F)F)c(NCc3nccnc3N(C)S(C)(=O)=O)n2)cc1 [defactinib]
Put plainly: log2 fold change, soluble protein after heating vs DMSO (PISA); higher = thermal stabilisation; K562 cells, 10 uM, 30 min; active = over 0.2 and 3.5 SD of the protein, either way, in both replicates (recomputed). The essentials:
(§1)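 Quantification of soluble protein used TMTpro 16plex LC-MS/MS, with channel sums equalised. Samples were the supernatant after 21,000xg for 90 min of pooled aliquots from K562 cells (2×10^6 cells/mL) treated with 10 μM compound for 30 min, heated for 3 min over 48°C-58°C, and extracted in PBS with 0.5% NP-40 at 4°C. Values, from duplicates, describe thermal stability against control samples on a log2 fold-change scale.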
On to KRAS isoform 2 (UniProt P01116), for which the log2 fold change is inactive: 0.013.
Same read-out and setting: the value for KPNB1 (UniProt Q14974) was inactive: -0.039; that for KPNA4 (UniProt O00629) was inactive: -0.095.
Same read-out and setting: the figure for KCNH2 (UniProt Q12809) is inactive: 0.217; for KLF1 (UniProt Q13351) it is inactive: 0.067.
With KIF3B (UniProt O15066), the log2 fold change is inactive: 0.028.
Same read-out and setting: the value for KDM5D isoform 3 (UniProt Q9BY66) was inactive: -0.357; that for KIDINS220 isoform 2 (UniProt Q9ULH0) was inactive: 0.026.
Still for that read-out and setting: the figure for KMT2C isoform 3 (UniProt Q8NEZ4) is inactive: -0.043; for JMJD8 (UniProt Q96S16) it is inactive: 0.044.
The same measure, in the same setting: the value for KNOP1 (UniProt Q1ED39) was inactive: 0.001.
Regarding JMJD6 isoform 3 (UniProt Q6NYC1), the log2 fold change was inactive: -0.188.
Same read-out and setting: the figure for KIF11 (UniProt P52732) is inactive: 0.017; for KIF4A (UniProt O95239) it is inactive: -0.04.
Same read-out and setting: the value for JAK3 (UniProt P52333) was inactive: 0.003.
Regarding KIAA1324L (UniProt A8MWY0), the log2 fold change is inactive: 0.033.
For the target KPTN (UniProt Q9Y664), the log2 fold change was inactive: -0.09.
On to KCTD10 (UniProt Q9H3F6), for which the log2 fold change was inactive: 0.013.
With KLC2 (UniProt Q9H0B6), the log2 fold change is inactive: -0.13.
On to KDM3B (UniProt Q7LBC6), for which the log2 fold change is inactive: -0.161.
Same read-out and setting: the figure for KNTC1 (UniProt P50748) is inactive: -0.044; for KCT2 (UniProt Q8NC54) it is inactive: -0.088; for KIF21A isoform 4 (UniProt Q7Z4S6) it is inactive: 0.016.
The same measure, in the same setting: the figure for KDM1A isoform 2 (UniProt O60341) is inactive: -0.065.
As for KIAA1755 (UniProt Q5JYT7), the log2 fold change was inactive: 0.015.
For KLHL18 (UniProt O94889), the log2 fold change was inactive: -0.04.
With KIFBP (UniProt Q96EK5), the log2 fold change is inactive: -0.092.

Compound in another assay: CNCc1ccc(-c2[nH]c3cc(F)cc4c3c2CCNC4=O)cc1 [rucaparib]
Described as above. The essentials: as §1
KRAS isoform 2 (UniProt P01116): the log2 fold change is inactive: -0.028.
Still for that read-out and setting: the value for KPNB1 (UniProt Q14974) was inactive: 0.126; that for KPNA4 (UniProt O00629) was inactive: -0.117.
As to KLF1 (UniProt Q13351), the log2 fold change was inactive: 0.027.
Same read-out and setting: the value for KIF3B (UniProt O15066) was inactive: -0.189; that for KDM5D isoform 3 (UniProt Q9BY66) was inactive: 0.067; that for KMT2C isoform 3 (UniProt Q8NEZ4) was inactive: -0.043.
Regarding KNOP1 (UniProt Q1ED39), the log2 fold change is inactive: 0.08.
Consider JMJD6 isoform 3 (UniProt Q6NYC1), for which the log2 fold change is inactive: 0.061.
Same read-out and setting: the figure for JMJD7 (UniProt P0C870) is inactive: 0.095; for KIF11 (UniProt P52732) it is inactive: 0.183; for KIF4A (UniProt O95239) it is inactive: 0.199.
Take KIAA1324L (UniProt A8MWY0): the log2 fold change is inactive: -0.021.
Same read-out and setting: the figure for KPTN (UniProt Q9Y664) is inactive: -0.141.
The same measure, in the same setting: the value for KCTD10 (UniProt Q9H3F6) was inactive: -0.07; that for KLC2 (UniProt Q9H0B6) was inactive: 0.001; that for KDM3B (UniProt Q7LBC6) was inactive: -0.058.
Turning to KNTC1 (UniProt P50748), the log2 fold change was inactive: 0.021.
Same read-out and setting: the value for KDELR1 (UniProt P24390) was inactive: 0.059; that for KCT2 (UniProt Q8NC54) was inactive: -0.008.
KIF21A isoform 4 (UniProt Q7Z4S6): the log2 fold change is inactive: 0.109.
Still for that read-out and setting: the figure for KDM1A isoform 2 (UniProt O60341) is inactive: 0.14; for KDM1B (UniProt Q8NB78) it is inactive: 0.361.
The same measure, in the same setting: the figure for KIAA1755 (UniProt Q5JYT7) is inactive: 0.007.
Same read-out and setting: the value for KCNK5 (UniProt O95279) was inactive: 0.05.
As for KLHL18 (UniProt O94889), the log2 fold change was inactive: -0.042.
Same read-out and setting: the value for KIFBP (UniProt Q96EK5) was inactive: 0.045.

Compound in another assay: CNc1nc(-c2ccc3c(N)n[nH]c3c2)cc(N2C[C@@H](C(=O)NC3CCCCC3)CC[C@H]2C)n1
The description is as above. The essentials:
as §1
KRAS isoform 2 (UniProt P01116): the log2 fold change is inactive: 0.011.
Same read-out and setting: the value for KPNB1 (UniProt Q14974) was inactive: 0.032.
In the case of KPNA4 (UniProt O00629), the log2 fold change was inactive: 0.
The same measure, in the same setting: the figure for JOSD1 (UniProt Q15040) is inactive: 0.217; for KCNH2 (UniProt Q12809) it is inactive: 0.092.
Turning to KLF1 (UniProt Q13351), the log2 fold change is inactive: 0.09.
The same measure, in the same setting: the figure for KIF3B (UniProt O15066) is inactive: -0.063; for KLHL42 (UniProt Q9P2K6) it is inactive: 0.026; for KMT2E (UniProt Q8IZD2) it is inactive: 0.001.
As for KDM5D isoform 3 (UniProt Q9BY66), the log2 fold change was inactive: -0.078.
Same read-out and setting: the figure for KDF1 (UniProt Q8NAX2) is inactive: 0.07; for KIDINS220 isoform 2 (UniProt Q9ULH0) it is inactive: -0.169; for JMJD4 (UniProt Q9H9V9) it is inactive: 0.012.
Regarding KISS1R (UniProt Q969F8), the log2 fold change was inactive: 0.043.
Consider KMT2C isoform 3 (UniProt Q8NEZ4), for which the log2 fold change was inactive: -0.046.
As to JMJD8 (UniProt Q96S16), the log2 fold change is inactive: -0.083.
On to KNOP1 (UniProt Q1ED39), for which the log2 fold change was inactive: 0.191.
In the case of JMJD6 isoform 3 (UniProt Q6NYC1), the log2 fold change was inactive: -0.016.
As to JMJD7 (UniProt P0C870), the log2 fold change is inactive: -0.123.
In the case of KIF11 (UniProt P52732), the log2 fold change is inactive: 0.088.
As for KIF4A (UniProt O95239), the log2 fold change was inactive: -0.169.
With JAK3 (UniProt P52333), the log2 fold change is inactive: -0.158.
Consider KIAA0754 (UniProt O94854), for which the log2 fold change is inactive: -0.049.
As for KBTBD7 (UniProt Q8WVZ9), the log2 fold change is inactive: -0.268.
On the same count and under the same terms, the figure for KIAA1324L (UniProt A8MWY0) is inactive: 0.023.
Take KPTN (UniProt Q9Y664): the log2 fold change was inactive: 0.106.
For the target KCTD10 (UniProt Q9H3F6), the log2 fold change was inactive: 0.007.
Consider KLC2 (UniProt Q9H0B6), for which the log2 fold change is inactive: 0.051.
Still for that read-out and setting: the value for KDM3B (UniProt Q7LBC6) was inactive: -0.093; that for KNTC1 (UniProt P50748) was inactive: -0.076; that for KDELR1 (UniProt P24390) was inactive: -0.027.
Same read-out and setting: the value for KCT2 (UniProt Q8NC54) was inactive: 0.031; that for KIF21A isoform 4 (UniProt Q7Z4S6) was inactive: 0.077.
On the same count and under the same terms, the figure for KDM1A isoform 2 (UniProt O60341) is inactive: 0.021; for KDM1B (UniProt Q8NB78) it is inactive: 0.191; for KIAA1755 (UniProt Q5JYT7) it is inactive: -0.007.
Consider KCNK5 (UniProt O95279), for which the log2 fold change was active: -1.08.
In the case of KLHL18 (UniProt O94889), the log2 fold change is inactive: 0.007.
The same measure, in the same setting: the figure for KIFBP (UniProt Q96EK5) is inactive: -0.019.
